This test has as its target T1, FLAG-CAL1 (Drosophila, UniProt Q9VEN2 1-979).
T1 construct: Chromosome Alignment 1 (CAL1), Drosophila; The results say the fusion is expressed under the endogenous CAL1 promoter, the methods say under the pCopia promoter; also called FLAG-tagged CAL1; Chromosome Alignment 1; source: Drosophila S2 cells stably expressing FLAG-CAL1, in chromatin-free extract / nuclear (chromatin) extract; not shown: FLAG, N-terminal, kept
T1 sequence (looked up): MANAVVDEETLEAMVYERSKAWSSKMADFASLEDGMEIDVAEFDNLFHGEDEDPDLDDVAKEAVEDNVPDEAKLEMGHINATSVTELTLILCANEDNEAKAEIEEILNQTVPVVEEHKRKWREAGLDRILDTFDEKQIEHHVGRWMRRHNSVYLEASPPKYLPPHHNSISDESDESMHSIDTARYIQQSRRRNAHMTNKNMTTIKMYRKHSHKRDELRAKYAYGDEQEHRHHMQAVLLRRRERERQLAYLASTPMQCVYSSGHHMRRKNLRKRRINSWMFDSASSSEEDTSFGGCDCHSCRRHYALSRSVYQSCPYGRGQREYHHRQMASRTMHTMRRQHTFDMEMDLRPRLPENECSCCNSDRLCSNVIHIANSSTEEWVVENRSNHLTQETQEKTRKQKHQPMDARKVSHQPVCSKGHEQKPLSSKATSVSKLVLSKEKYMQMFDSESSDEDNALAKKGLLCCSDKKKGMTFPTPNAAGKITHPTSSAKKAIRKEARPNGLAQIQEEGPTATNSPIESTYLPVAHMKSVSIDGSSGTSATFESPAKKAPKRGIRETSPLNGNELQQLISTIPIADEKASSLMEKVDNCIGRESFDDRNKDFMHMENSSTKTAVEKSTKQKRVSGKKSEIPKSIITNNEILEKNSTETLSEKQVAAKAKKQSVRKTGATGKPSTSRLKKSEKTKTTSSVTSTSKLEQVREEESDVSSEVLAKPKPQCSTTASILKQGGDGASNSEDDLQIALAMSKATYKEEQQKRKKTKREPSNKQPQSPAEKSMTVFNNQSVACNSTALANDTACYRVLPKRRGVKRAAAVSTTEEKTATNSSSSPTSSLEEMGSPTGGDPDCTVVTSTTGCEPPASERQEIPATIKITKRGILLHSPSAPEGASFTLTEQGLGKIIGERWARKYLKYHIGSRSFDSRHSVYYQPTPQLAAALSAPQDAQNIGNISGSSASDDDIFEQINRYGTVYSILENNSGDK
The test can be described thus: affinity purification with mass spectrometry; FLAG-bead IP from chromatin-free extracts of 1x10^9 S2 cells stably expressing FLAG-CAL1 (untagged S2 cells as control); eluate digested with trypsin and LysC, LC-MS/MS.

No constants are given. Whether binding was seen depends on the method and setting. In cells and extracts the contact can be indirect. These calls come from enrichment with a bait or labelling near it, and not all partners need be listed.

B1: Modulo (natural protein, Drosophila (endogenous in S2 cells), UniProt P13469 1-542, looked up)
chain: MAQKKAVTVKGKKATNGEEKPLAKRVTKSTKVQEEETVVPQSPSKKSRKQPVKEVPQFSEEDESDVEEQNDEQPGDDSDFETEEAAGLIDDEAEEDEEYNSDDEEDDDDDELEPGEVSKSEGADEVDESDDDEEAPVEKPVSKKSEKANSEKSEENRGIPKVKVGKIPLGTPKNQIVFVTNLPNEYLHKDLVALFAKFGRLSALQRFTNLNGNKSVLIAFDTSTGAEAVLQAKPKALTLGDNVLSVSQPRNKEENNERTVVVGLIGPNITKDDLKTFFEKVAPVEAVTISSNRLMPRAFVRLASVDDIPKALKLHSTELFSRFITVRRISQESISRTSELTLVVENVGKHESYSSDALEKIFKKFGDVEEIDVVCSKAVLAFVTFKQSDAATKALAQLDGKTVNKFEWKLHRFERSTSGRAILVTNLTSDATEADLRKVFNDSGEIESIIMLGQKAVVKFKDDEGFCKSFLANESIVNNAPIFIEPNSLLKHRLLKKRLAIGQTRAPRKFQKDTKPNFGKKPFNKRPAQENGGKSFVKRARF
notes: Modulo, Drosophila nucleolar protein, endogenous in S2 cells; runs as a 75 KDa protein; also called nucleolar protein Modulo; Drosophila nucleolin homolog; source: endogenous, Drosophila S2 cells, in chromatin-free extract / nuclear (chromatin) extract
In the case of B1, the binding result is “binds”.

The values are drawn from PMC3448598, “A Role for the CAL1-Partner Modulo in Centromere Integrity and Accurate Chromosome Segregation in Drosophila” (PLoS ONE, 2012).
